We go through 1 molecule from article PMC7322359.

Results are given in words; binding and its absence hold for the method and conditions named. Binding seen in cells or lysates may run through a third protein. A result given as binding can be weak or reduced; the word gives no strength.

This assay addresses StAR Related Lipid Transfer Domain Containing 10 (rat (endogenous in INS1 (832/13))). Kind of assay: co-IP; endogenous STARD10 immunoprecipitated from INS1 (832/13) cells; Kir6.2 detected by Western (immuno-)blot (Supplemental Figure 4).

B1: ATP-sensitive inward rectifier potassium channel 11 (protein, UniProt P70673 1-390)
chain: MLSRKGIIPEEYVLTRLAEDPTEPRYRTRERRARFVSKKGNCNVAHKNIREQGRFLQDVFTTLVDLKWPHTLLIFTMSFLCSWLLFAMVWWLIAFAHGDLAPGEGTNVPCVTSIHSFSSAFLFSIEVQVTIGFGGRMVTEECPLAILILIVQNIVGLMINAIMLGCIFMKTAQAHRRAETLIFSKHAVITLRHGRLCFMLRVGDLRKSMIISATIHMQVVRKTTSPEGEVVPLHQVDIPMENGVGGNSIFLVAPLIIYHVIDSNSPLYDLAPSDLHHHQDLEIIVILEGVVETTGITTQARTSYLADEILWGQRFVPIVAEEDGRYSVDYSKFGNTVKVPTPLCTARQLDEDRSLLDALTLASSRGPLRKRSVAVAKAKPKFSISPDSLS
For the molecule B1, the binding result is “binds”.
